Experimental data taken from PMC11045720.
Results are given in words; binding and its absence hold for the method and conditions named.

By UniProt entry, the sequences of proteins in these tests, tags left out. Residues count along the entry.
UniProt P00366, residues 58-558: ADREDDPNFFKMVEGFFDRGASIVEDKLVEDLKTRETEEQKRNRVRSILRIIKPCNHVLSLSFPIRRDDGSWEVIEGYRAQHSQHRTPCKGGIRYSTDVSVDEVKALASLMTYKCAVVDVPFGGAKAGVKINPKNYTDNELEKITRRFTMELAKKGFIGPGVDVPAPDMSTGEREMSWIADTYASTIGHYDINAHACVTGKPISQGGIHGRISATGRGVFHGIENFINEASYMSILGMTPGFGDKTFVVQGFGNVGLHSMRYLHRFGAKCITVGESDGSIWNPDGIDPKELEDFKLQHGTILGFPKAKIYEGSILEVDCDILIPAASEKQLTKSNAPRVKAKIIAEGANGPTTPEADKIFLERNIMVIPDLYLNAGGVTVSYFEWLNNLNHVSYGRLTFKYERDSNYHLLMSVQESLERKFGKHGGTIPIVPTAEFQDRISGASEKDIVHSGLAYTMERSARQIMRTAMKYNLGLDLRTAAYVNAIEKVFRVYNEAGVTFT

Molecular target: L-Glutamate dehydrogenase from bovine liver (bovine) (UniProt P00366)
Assay: mass photometry (denaturing, dMP), no cross-linker; 5 min in 5.4 M urea, then diluted in PBS (up to 10 min) before the measurement; both purified

For “L-Glutamate dehydrogenase from bovine liver (from UniProt P00366 58-558) (enzyme)”, the binding was “no binding (condition: after denaturation in 5.4 M urea)”.
